PubChem BioAssay AID588590 (National Center for Advancing Translational Sciences (NCATS), 2011)
Values joined by “and” are separate entries in the source; they are usually repeats but may differ in a detail not shown here. Identical values can stand only once. About 4,000 (1%) of roughly 390,000 compounds were called active. The shares of active, inactive and inconclusive entries below differ from those in the screen. The call rests on the fitted dose curve; in most records, active means well fitted inhibition curve with a large enough effect; inconclusive means small, poorly fitted or top-dose-only effect, or another doubt; inactive means no such curve, though single readings can be large or run the other way. Potencies of inconclusive entries are doubtful fits and often do not repeat.

Chains of the proteins cited; added tags and fusions are not shown. Lines headed by an entry give the natural chain unless they say otherwise; changes in a name come on top.
UniProt Q9UNA4: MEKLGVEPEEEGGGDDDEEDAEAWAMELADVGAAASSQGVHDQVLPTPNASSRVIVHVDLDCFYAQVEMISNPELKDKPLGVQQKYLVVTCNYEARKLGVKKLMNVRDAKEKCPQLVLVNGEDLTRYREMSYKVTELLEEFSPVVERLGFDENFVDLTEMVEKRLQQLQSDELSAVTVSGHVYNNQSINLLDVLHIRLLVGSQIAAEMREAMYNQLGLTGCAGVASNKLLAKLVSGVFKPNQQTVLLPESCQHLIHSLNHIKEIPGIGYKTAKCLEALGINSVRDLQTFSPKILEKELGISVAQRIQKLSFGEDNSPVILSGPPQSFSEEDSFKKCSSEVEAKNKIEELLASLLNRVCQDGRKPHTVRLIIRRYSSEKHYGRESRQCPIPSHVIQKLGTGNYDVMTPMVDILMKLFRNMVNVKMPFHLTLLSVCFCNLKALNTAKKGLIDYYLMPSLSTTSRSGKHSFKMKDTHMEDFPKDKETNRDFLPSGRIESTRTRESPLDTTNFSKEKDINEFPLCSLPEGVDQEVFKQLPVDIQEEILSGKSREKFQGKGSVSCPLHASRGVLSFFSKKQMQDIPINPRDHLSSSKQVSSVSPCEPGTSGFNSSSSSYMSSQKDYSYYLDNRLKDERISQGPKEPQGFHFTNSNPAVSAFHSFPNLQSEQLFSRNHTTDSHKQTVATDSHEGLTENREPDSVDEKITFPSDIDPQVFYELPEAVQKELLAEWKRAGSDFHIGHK

biological target: DNA polymerase iota (Homo sapiens) (UniProt Q9UNA4); experiment: qHTS for Inhibitors of Polymerase Iota; conditions: Pol iota fluorescent replication assay, 10 min; series mostly up to 115 µM
How it was run: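 Pol iota at 10 nM preincubated 15 min with compounds at room temperature; reaction started with fluorescent substrate, 50 nM final. Fluorescence read kinetically at 0 and 10 min; buffer-only wells as negative control.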
Potency means the concentration at half of the fitted maximal effect.

SMILES	Potency
Cc1cc(NC(=O)COc2cccc(Oc3ccccc3)c2)no1	inconclusive: 22.4 µM [inhibitor, single point]
CCN(CC)CCCNC(=O)C1CCN(C(=O)c2oc3cc4sc(N(C)C)nc4cc3c2C)CC1	inconclusive: 89.1 µM [inhibitor, single point]
CCc1sc(C(C2C(=O)CC(C)(C)CC2=O)C2C(=O)CC(C)(C)CC2=O)cc1[N+](=O)[O-]	inconclusive: 17.8 µM [inhibitor, partial curve, poor fit]
COc1cc(NC(=O)c2noc3c2CCC3)c(OC)cc1Cl	inconclusive: 11.2 µM [inhibitor, full curve, poor fit]
COc1ccc(N(CC(=O)NC2CCCCC2)C(=O)CCCC(=O)Nc2ccccn2)c(OC)c1	inconclusive: 28.2 µM [inhibitor, single point]
Cc1nn(CCCC(=O)NCc2ccccc2)c(=O)c2c1sc1ccccc12	inconclusive: 11.2 µM [inhibitor, partial curve]
CCOC(=O)N1CCN(C(=O)c2cnsn2)CC1	inactive
CCOC(=O)c1ccc(NC(=O)c2nc(S(=O)(=O)Cc3ccccc3)ncc2Cl)cc1	inconclusive: 14.1 µM [inhibitor, partial curve, poor fit] and inconclusive: 28.2 µM [inhibitor, partial curve, poor fit]
Cc1cc(C)n2nc3nc(N4CCCCC4)nc(-c4ccco4)c3c2n1	inconclusive: 10 µM [inhibitor, full curve, poor fit]
c1ccc(-c2nc(-n3nc4ccccc4n3)nc3ccccc23)cc1	inconclusive: 28.2 µM [inhibitor, partial curve, poor fit]
CCNc1nc(NCC)n2c(SCC(=O)Nc3cc(Cl)ccc3OC)nnc2n1	inconclusive: 79.4 µM [inhibitor, partial curve, poor fit]
Cc1c(NC(=O)Cn2ccc([N+](=O)[O-])n2)c(=O)n(-c2ccccc2)n1C	inconclusive: 28.2 µM [inhibitor, partial curve, poor fit]
Cc1ccc2c(c1)c1c(n2CC(O)CNC2CCCCC2)CCCC1 (stereo unspecified)	inactive
CCC1C(=O)CC(c2ccco2)NC1c1ccco1 (stereo unspecified)	inconclusive: 2 µM [inhibitor, partial curve, poor fit]
O=C1NN(c2ccc(Cl)c(Cl)c2)C(=O)/C1=C/c1ccc(-c2ccccc2C(=O)O)o1	active: 5.01 µM
CCN(CC)CCOC(=O)c1ccc(NC(=O)c2nn(-c3ccc(C)cc3)c(=O)c3c2c2ccccc2n3C)cc1	inconclusive: 79.4 µM [inhibitor, single point]
CCc1cccc(CC)c1-n1c(SCC(=O)N2CCc3ccccc32)nc(O)cc1=O	inconclusive: 17.8 µM [inhibitor, partial curve]
Cc1ccc(C(=O)O)cc1-c1ccc(/C=C2\SC(=O)N(CC(=O)Nc3ccccc3)C2=O)o1	inconclusive: 22.4 µM [inhibitor, full curve, poor fit]
COCCN1C(=O)Cc2c1nc(N)c1c(N)nc(N3CCN(c4ccc(F)cc4)CC3)c(C#N)c21	inconclusive: 28.2 µM [inhibitor, partial curve, poor fit]
COc1ccc(CNC(=O)c2oc3c(c2C)-c2nn(Cc4ccccc4Cl)cc2CC3)cc1	inactive
Cc1nn(-c2ccccc2)c2nc(N)c(C#N)c(-c3ccc(O)c(O)c3)c12	inconclusive: 79.4 µM [inhibitor, partial curve]

SMILES	Potency
O=C1CC(c2ccccc2)CC(O)=C1C=NC1CCCCCC1 (stereo unspecified)	inconclusive: 79.4 µM [inhibitor, full curve]
CS(=O)(=O)Nc1ccc(C(=O)Nc2cccc([N+](=O)[O-])c2)cc1	inconclusive: 50.1 µM [inhibitor, partial curve, poor fit]
Cc1cc(N2C(=O)C(=O)/C(=C(/O)c3ccccc3)C2c2cccs2)no1 (stereo unspecified)	inconclusive: 3.16 µM [inhibitor, single point]
COC(=O)CCCC1=CC2=CC(=O)C(C)(OC(=O)c3cccs3)C(=O)C2=CN1Cc1ccco1 (stereo unspecified)	inconclusive: 35.5 µM [inhibitor, full curve, poor fit]
S=C(Nc1ccccc1Cl)NC1CCCCCC1	inconclusive: 11.2 µM [inhibitor, single point]
CC(C)(C)C(=O)CC1(O)C(=O)N(Cc2ccccc2)c2ccccc21 (stereo unspecified)	inconclusive: 89.1 µM [inhibitor, single point]
O=C(O)COc1ccccc1/C=N/NC(=O)CSc1nc2ccccc2n1Cc1ccccc1Cl	inconclusive: 28.2 µM [inhibitor, single point]
COc1ccc(-c2[nH]c(-c3ccc(OC)c(OC)c3)nc2SCC(=O)Nc2ccccc2)cc1	inconclusive: 89.1 µM [inhibitor, partial curve, poor fit]
COC(=O)CN1C(=O)S/C(=C/c2ccc(N3CCCCC3)o2)C1=O	inconclusive: 0.631 µM [inhibitor, full curve, poor fit]
C/C(=N\NC(=O)c1ccccc1O)c1ccc(NC(=O)Cc2ccccc2)cc1	inactive
COc1ccccc1C(=O)NCC(=O)Nc1ccc2c(c1)CCC2	inactive
CCCNC(=O)N[C@@H](CCSC)C(=O)OC	inconclusive: 89.1 µM [inhibitor, full curve]
Cc1ccc(C(=O)CC2(O)C(=O)N(Cc3ccccc3Cl)c3ccccc32)o1 (stereo unspecified)	inconclusive: 28.2 µM [inhibitor, partial curve, poor fit]
O=C(Nc1cccc(C(=O)O)c1)/C(=C\c1ccco1)NC(=O)c1ccc(Br)o1	inconclusive: 15.8 µM [inhibitor, full curve, poor fit]
COc1ccc(CCNC(=O)CSc2nnc(-c3ccc(C)cc3)c(-c3ccc(C)cc3)n2)cc1OC	inactive
Cc1ccc(-c2noc(-c3ccc(NCC4CCCO4)c([N+](=O)[O-])c3)n2)cc1 (stereo unspecified)	inconclusive: 79.4 µM [inhibitor, partial curve]
Cc1ccn2c(=O)nc(SCC(=O)OCc3ccccc3)nc2c1	active: 44.7 µM
O=C(Nc1ccccc1Cl)c1cc(S(=O)(=O)N2CCCC(C(=O)O)C2)ccc1F (stereo unspecified)	inconclusive: 79.4 µM [inhibitor, single point]
Cc1ccc(CNC(=O)CSc2nccn(-c3ccc(C)c(F)c3)c2=O)cc1	inconclusive: 39.8 µM [inhibitor, single point]
CCOc1ccc(C(=O)NCCS(=O)(=O)N2CCN(c3cccc(Cl)c3)CC2)cc1	inactive
COc1cccc(C2=NN(S(C)(=O)=O)C(c3cn(-c4ccccc4)nc3-c3cccs3)C2)c1 (stereo unspecified)	inconclusive: 3.55 µM [inhibitor, partial curve, poor fit]

SMILES	Potency
COc1ccc(CNC(=O)CN(C)c2nn3c(=O)cc(C)nc3s2)cc1	inactive
COc1cc(OC)cc(OC(=O)c2cccc(S(=O)(=O)N3CCN(C)CC3)c2)c1	inconclusive: 89.1 µM [inhibitor, single point]
Nc1cc(=O)[nH]c(SCC(=O)N2CCc3ccccc3C2)n1	inactive
Cc1cccc(Cl)c1OCCCCn1ccnc1	inconclusive: 63.1 µM [inhibitor, partial curve, poor fit]
Cc1ccc(S(=O)(=O)NCCC(=O)NC2CC2)cc1	inconclusive: 56.2 µM [inhibitor, partial curve, poor fit]
CCOc1ccc(C(NC(=O)/C=C/c2ccco2)c2ccc(OC)c(OC)c2)cc1 (stereo unspecified)	inconclusive: 12.6 µM [inhibitor, partial curve, poor fit]
O=S(=O)(c1ccc(Cl)cc1)N1CCN(c2nc(-c3ccc(F)cc3)nc3cc(Cl)ccc23)CC1	inactive
Cc1cc(NC(=O)C(Cl)Cl)cc2c1OCO2	inactive
Cc1cccc(OCC(=O)NS(=O)(=O)c2ccc(Br)cc2)c1	inconclusive: 89.1 µM [inhibitor, partial curve, poor fit]
Cc1nn(Cc2c(F)c(F)c(F)c(F)c2F)c(C)c1NC(=O)c1cccc(COc2ccccc2Cl)c1	inconclusive: 89.1 µM [inhibitor, partial curve, poor fit]
CC1CCc2c(sc(NC(=O)c3cccn3C)c2C(N)=O)C1 (stereo unspecified)	inconclusive: 12.6 µM [inhibitor, full curve]
CC(C)n1c(=O)[nH]c(=O)n1C(C)C	inconclusive: 79.4 µM [inhibitor, partial curve, poor fit]
CC1=C(C(=O)Nc2ccccc2)C(c2ccc(C(=O)O)cc2)n2nc(SCC(=O)c3ccc(C)cc3)nc2N1 (stereo unspecified)	inconclusive: 89.1 µM [inhibitor, single point]
CC1=CC(=C2C(=O)c3ccccc3C2=O)C=C(C)N1Cc1ccco1	inconclusive: 31.6 µM [inhibitor, single point]
CC(C)Oc1ccc(OCCCN2CCCCCC2)cc1	inconclusive: 39.8 µM [inhibitor, single point]
COc1ccc(NC(C)=O)cc1S(=O)(=O)Nc1ccc(OCc2ccccc2)cc1	inconclusive: 39.8 µM [inhibitor, single point]
COc1ccc(N2CCN(C(=O)c3cc(=O)c4ccc(C)cc4o3)CC2)cc1	inconclusive: 35.5 µM [inhibitor, single point]
NC1=NC(=O)/C(=C/c2ccccc2OS(=O)(=O)c2ccc3ccccc3c2)S1	inactive
COCCCNC(=O)/C(C#N)=C/c1cccc(NC(=O)c2ccccc2Cl)c1	inconclusive: 35.5 µM [inhibitor, partial curve, poor fit]
